Tested on: T1, DWM-aconitase
T1 construct: gene ACO; not purified; homeologous genes not distinguished
Assay: aconitase/isocitrate dehydrogenase coupled assay, NADPH absorbance at […] nm
Type: biochemical, Triticum turgidum subsp. durum
Settings: pH 8.0, 0.1% Triton X-100, 25 °C, 20 mM citrate; 10 min pre-incubation of mitochondria, no H2O2; activator; direct binding not shown

| Compound | % activation at 150 μM |
| --- | --- |
| O=c1cc(-c2ccc(O)cc2)oc2cc(O)cc(O)c12 [apigenin] | ~ 50% |
| COc1cc(/C=C/C(=O)CC(=O)/C=C/c2ccc(O)c(OC)c2)ccc1O [curcumin] | ~ 65% |
| O=c1c(O)c(-c2ccc(O)c(O)c2)oc2cc(O)cc(O)c12 [quercetin] | ~ 25% |

Source: publication PMC7763331, “First Evidence of a Protective Effect of Plant Bioactive Compounds against H2O2-Induced Aconitase Damage in Durum Wheat Mitochondria” (Antioxidants, 2020)
